We go through two substances from publication PMC5452035, “Structural insight into recognition of phosphorylated threonine‐4 of RNA polymerase II C‐terminal domain by Rtt103p” (EMBO Reports, 2017).

This data set is described as follows: Cis-trans population estimation of the Ser-Pro peptide bond by [13C,1H]-HSQC. Format: physicochemical. Particulars: free peptide, 1 mM, 35 mM KH2PO4, 100 mM KCl pH 6.8, 90% H2O/10% D2O, 20°C, ratio of peak volumes.

As for “PSYS^13CP(pT)SPSYS [PS YS^13CP(pT)SPS YS, pThr4 CTD peptide with 13C‐labelled P3b]”, the “population of the cis conformer of the S2b–P3b prolyl‐peptidyl bond” value was 6.6%.

As for “PS Y(pS)^13CP(pT)SPSYS [PS Y(pS)^13CP(pT)SPS YS, pSer2pThr4 CTD peptide with 13C‐labelled P3b]”, the “population of the cis conformer of the S2b–P3b prolyl‐peptidyl bond” value is on record as 7.8%.
